Whole data set: some 33,000 sequences, median “E-score (-0.5 to 0.5)” near -8e-05, cut for the highest 2% near 0.23. This is one part of the list.
Molecular target: T1, Nrg2 (UniProt P38082)
T1 sequence: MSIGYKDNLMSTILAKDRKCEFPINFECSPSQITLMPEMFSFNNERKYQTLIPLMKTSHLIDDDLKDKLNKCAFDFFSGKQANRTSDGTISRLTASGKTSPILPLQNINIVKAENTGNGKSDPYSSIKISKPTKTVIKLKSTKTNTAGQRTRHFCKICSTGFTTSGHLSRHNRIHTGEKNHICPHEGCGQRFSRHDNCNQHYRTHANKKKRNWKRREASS
Test: PBM E-score (8-mer binding enrichment) (E-score (-0.5 to 0.5)); higher = stronger / more preferred TF binding
Conditions: protein concentration: 100 nM; construct: GST-full length
How it was run: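 Full-length yeast transcription factors or their DNA-binding domains, GST-tagged and expressed with PURExpress, were applied at about 100-200 nM to universal all-10-mer Agilent arrays. These arrays had been made double-stranded by primer extension on fresh or once-stripped slides. Detection used fluorescent anti-GST, normalisation used masliner, and E-scores for ungapped eight-base words pooled with reverse complements came from the Universal PBM Analysis Suite.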

Sequence	PBM E-score
GCGTACCA	-0.106
AGTGGCGC	0.0571
GGCAGACC	-0.373
GAGTCGGC	-0.158
AGGGTGTG	0.0336
ACCTTCGT	-0.0154
CTCTTTCA	-0.0678
CGTCAGAA	-0.171
CTCCATGC	-0.162
CCGATCGG	0.138
AATCCGCC	-0.0362
AAATGCTT	-0.0953
ATCCAGAT	0.0218
TCAGCACA	0.115
ACGGATGA	-0.0184
CCCCTTCA	-0.0586
ACGTTAGT	-0.0367
GGCTAGGA	-0.242
GTTCGGAA	0.00713
CTCGCTTC	-0.0616
ACGGTAGC	-0.102
ACATATGG	0.0141
CTACAACC	0.0231
GGCGCAGA	-0.0307
AACGTCGA	0.102

Sequence	PBM E-score
CAAACGTG	0.0273
CACAATAG	0.15
TAGCATAA	0.00712
GGCCGGAA	-0.0874
AAGACGGG	-0.0336
AGACGGAC	0.0662
GACCGTAA	-0.143
CAGCAGTA	-0.0779
GCATTACC	-0.195
CAGCTCTC	-0.272
AAATCTTG	0.0495
TAGGACTA	-0.111
ATCCCCCA	-0.415
GAACGCCC	-0.017
GCCTAAGC	-0.196
ACTGGAAG	-0.119
ATGTGATA	0.113
AATTACGT	-0.148
ACGAGCGC	-0.141
AATTTGGC	-0.142
ATTCGCCG	0.216
CGACACCA	-0.124
CGCGTAAG	0.0252
GTAGCGAA	0.0541
CAATTATC	0.289

Sequence	PBM E-score
CAGCGCCA	-0.18
TCTTTAAA	0.107
AGGGTTTA	0.235
ATTGAGGG	0.0646
ATAAGTAT	0.0612
CCGCTCCC	-0.249
AGACTCAC	-0.252
ATATCTAG	0.0771
CAGGTTAG	0.0599
CTTCGTTA	-0.0988
AATTGTGC	0.184
CGGCCGCC	-0.138
CCTATCGA	0.0835
GAGGCCGA	-0.0441
CGTCAGGC	-0.106
CTCCCACC	-0.233
CGTGCTCA	-0.05
CCACGACG	0.143
GATGCCAA	-0.173
ACTTTATG	0.0763
CGTCTAGA	-0.0818
GCGTACGA	0.0504
TAATAGGA	0.128
GGCCGGCA	0.0905
TGACCACA	-0.0754

An excerpt taken from the entries so far, as a working copy:
Sequence	PBM E-score
AAATCTTG	0.0495
TAGGACTA	-0.111
ATCCCCCA	-0.415
GAACGCCC	-0.017
GCCTAAGC	-0.196
ACTGGAAG	-0.119
ATGTGATA	0.113
AATTACGT	-0.148
ACGAGCGC	-0.141
AATTTGGC	-0.142
ATTCGCCG	0.216
CGACACCA	-0.124
CGCGTAAG	0.0252
GTAGCGAA	0.0541
CAATTATC	0.289
CAGCGCCA	-0.18
TCTTTAAA	0.107
AGGGTTTA	0.235
ATTGAGGG	0.0646
ATAAGTAT	0.0612
CCGCTCCC	-0.249
AGACTCAC	-0.252
ATATCTAG	0.0771
CAGGTTAG	0.0599
CTTCGTTA	-0.0988
AATTGTGC	0.184
CGGCCGCC	-0.138
CCTATCGA	0.0835
GAGGCCGA	-0.0441
CGTCAGGC	-0.106
CTCCCACC	-0.233
CGTGCTCA	-0.05
CCACGACG	0.143
GATGCCAA	-0.173
ACTTTATG	0.0763
CGTCTAGA	-0.0818
GCGTACGA	0.0504
TAATAGGA	0.128
GGCCGGCA	0.0905

(further entries)

Sequence	PBM E-score
ATTCCAAA	-0.0604
CGATAGAG	-0.044
CGCACTCA	0.118
ACTTCTAG	-0.275
AAACATAG	-0.124
CCATTGTC	0.0211
AAGTGCGG	0.133
GCCAGTAA	-0.111
ACATGTTC	0.0432
ACAATAGA	0.207
AGCCGTAG	0.0625
ATTGGGGG	-0.366
TGAGAAAA	0.135
GCACTGCC	0.0387
CATTTCTC	0.0263
AACCCCCA	-0.39
AAACCGAT	-0.137
CAGCGGCC	-0.154
GCGGCTCA	-0.0268
ATGTGGTG	0.00638
CGTTATAG	0.0243
ACAACAGA	-0.0576
TACCCGAA	0.0732
CGCACCTA	-0.093
ACATATCG	0.0325

Sequence	PBM E-score
ATAGGCAG	0.128
CGTACTTC	0.0661
GAGGTTCA	0.0461
AACTTATC	0.121
ATCACCCC	0.00817
CTAAAAAC	-0.233
CCTAGCCG	-0.0406
AGCCCAGA	0.083
GCGCGTCC	0.0553
ACTGATTA	0.0244
TCGTGTCA	-0.161
CCCTGCGC	0.1
AAACTATG	-0.0201
ACGTTAAA	0.0247
CCACGTAG	-0.189
CGTGCTTC	0.179
CGTTAAAG	0.00135
GCGCTTCA	0.0744
AAGACCAA	-0.0416
AAGGGGCG	-0.117
GAGACTGC	-0.161
CGAAGCTA	0.00827
GCAACAAA	0.176
CGCCTCTA	-0.0805
CCGACAGA	0.141

Sequence	PBM E-score
CCCCACAA	-0.012
ATGCTTGC	-0.0769
ACATTACG	0.111
AGGATCCT	0.131
CTGTACAG	-0.092
CTTTGGGA	-0.076
CGGCGCCC	0.00082
CGGCTCTC	-0.126
ATCGGGGA	0.0169
AGCGGATA	-0.042
GAGCTCAA	0.0843
ACGTTCCT	-0.0343
CTAACAAG	-0.0148
GGAATACA	0.0334
ACCAAGAG	0.0211
AGAGGCGC	-0.158
ACGACCAC	-0.00155
ACGCCCCT	0.0134
GGCTAGAA	-0.177
AGAGTGAA	-0.0477
CGAGGAGA	-0.0175
ATCTGTGC	0.133
ACAGCGCG	0.192
AGGAAGTC	-0.177
AAGGCAAG	-0.112

Sequence	PBM E-score
AGTAGATA	0.249
GCCCGACC	-0.107
AGTAATGA	0.111
CGCGCCTC	0.00193
AAGTCAGT	0.0388
AGTTGCCC	0.111
GGGAAAAA	0.102
AGCCCACC	-0.214
ACATTGAT	0.128
GAGGGCGA	-0.272
CTGATTCC	0.0509
CAGAGGTC	0.00355
CACGCCAC	-0.124
AAGCACGA	0.0236
AAAACAAA	0.0636
CGTCACGC	-0.0819
CCCGATCC	-0.167
GCATTTAC	0.00276
AATAGTTG	0.248
ACACCAAA	0.182
GCACGTGC	0.199
GCTGGAAC	-0.144
